Source: PubChem BioAssay AID1259277 (Sanger Institute, 2017)

Aim: 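Kinases whose depletion works synergistically with BYL719, cetuximab or trametinib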 (follow-up of hits)
System: LS123 human colorectal cancer cells
Reagents: single siRNA against human genes
Challenge: anchor drug BYL719 at 1 µM, cetuximab at 5 µg/ml or trametinib at 10 nM, or DMSO vehicle only, given one day after siRNA delivery
Measured: 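Replicate-averaged viability normalised to non-targeting pool 2 siRNA, and a synergy score contrasting observed combination viability with single siRNA and single drug effects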
Direction: synergy score with trametinib: higher = stronger synergistic killing with trametinib; synergy score with BYL719: higher = stronger synergistic killing with BYL719; synergy score with cetuximab: higher = stronger synergistic killing with cetuximab
Rule for the call: 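An siRNA counts as active when its synergy score is above 0.10 with one or more anchor drugs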
Meaning of the calls: active = synergy with at least one anchor drug; inactive = no synergy with any anchor drug
Here is a random part of 160 reagents tested. 48 of them (30%) count as active. 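Calls refer to individual siRNAs; confirming a gene required at least two siRNAs in multiple cell lines.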 Reagents against one gene are numbered here. Not all columns of the deposit are shown. Not stated in the record: the amount of reagent, the time to read-out.

| gene knocked down | reagent | synergy score with trametinib | synergy score with BYL719 | synergy score with cetuximab | activity call |
| --- | --- | --- | --- | --- | --- |
| EPHA6 (GeneID 285220) | 1 | 0.0572 | -0.119 | -0.164 | inactive |
| EPHA6 (GeneID 285220) | 2 | -0.0153 | -0.137 | -0.124 | inactive |
| EPHA6 (GeneID 285220) | 3 | -0.00541 | -0.138 | -0.0649 | inactive |
| EPHA6 (GeneID 285220) | 4 | -0.0199 | -0.183 | -0.173 | inactive |
| COASY (GeneID 80347) | 1 | -0.142 | -0.391 | -0.329 | inactive |
| COASY (GeneID 80347) | 2 | -0.169 | -0.0684 | -0.207 | inactive |
| COASY (GeneID 80347) | 3 | -0.105 | -0.112 | -0.178 | inactive |
| COASY (GeneID 80347) | 4 | -0.113 | -0.0931 | -0.111 | inactive |
| ACVR1 (GeneID 90) | 1 | 0.223 | -0.233 | -0.118 | active |
| ACVR1 (GeneID 90) | 2 | 0.0726 | -0.292 | -0.135 | inactive |
| ACVR1 (GeneID 90) | 3 | 0.0115 | -0.0392 | -0.0147 | inactive |
| ACVR1 (GeneID 90) | 4 | 0.108 | 0.0177 | -0.0468 | active |
| AK2 (GeneID 204) | 1 | 0.167 | -0.0326 | -0.000581 | active |
| AK2 (GeneID 204) | 2 | -0.0781 | -0.192 | -0.166 | inactive |
| AK2 (GeneID 204) | 3 | 0.0415 | -0.205 | 0.0427 | inactive |
| AK2 (GeneID 204) | 4 | 0.161 | 0.0259 | -0.0918 | active |
| GRK5 (GeneID 2869) | 1 | -0.0474 | -0.263 | -0.078 | inactive |
| GRK5 (GeneID 2869) | 2 | 0.0423 | -0.202 | -0.044 | inactive |
| GRK5 (GeneID 2869) | 3 | 0.0492 | -0.146 | -0.107 | inactive |
| GRK5 (GeneID 2869) | 4 | 0.0226 | -0.14 | -0.107 | inactive |

Targets listed so far whose target name starts with A or a (8):
| gene knocked down | reagent | synergy score with trametinib | synergy score with BYL719 | synergy score with cetuximab | activity call |
| --- | --- | --- | --- | --- | --- |
| ACVR1 (GeneID 90) | 1 | 0.223 | -0.233 | -0.118 | active |
| ACVR1 (GeneID 90) | 2 | 0.0726 | -0.292 | -0.135 | inactive |
| ACVR1 (GeneID 90) | 3 | 0.0115 | -0.0392 | -0.0147 | inactive |
| ACVR1 (GeneID 90) | 4 | 0.108 | 0.0177 | -0.0468 | active |
| AK2 (GeneID 204) | 1 | 0.167 | -0.0326 | -0.000581 | active |
| AK2 (GeneID 204) | 2 | -0.0781 | -0.192 | -0.166 | inactive |
| AK2 (GeneID 204) | 3 | 0.0415 | -0.205 | 0.0427 | inactive |
| AK2 (GeneID 204) | 4 | 0.161 | 0.0259 | -0.0918 | active |

Next reagents follow.
| gene knocked down | reagent | synergy score with trametinib | synergy score with BYL719 | synergy score with cetuximab | activity call |
| --- | --- | --- | --- | --- | --- |
| SYK (GeneID 6850) | 1 | 0.193 | -0.0585 | -0.159 | active |
| SYK (GeneID 6850) | 2 | 0.0689 | -0.145 | -0.162 | inactive |
| SYK (GeneID 6850) | 3 | 0.145 | 0.00945 | -0.0728 | active |
| SYK (GeneID 6850) | 4 | 0.0157 | -0.181 | -0.134 | inactive |
| IRAK3 (GeneID 11213) | 1 | 0.0737 | -0.186 | -0.0434 | inactive |
| IRAK3 (GeneID 11213) | 2 | 0.222 | 0.0491 | 0.095 | active |
| IRAK3 (GeneID 11213) | 3 | -0.0842 | -0.232 | -0.181 | inactive |
| IRAK3 (GeneID 11213) | 4 | 0.0995 | -0.0308 | -0.0152 | inactive |
| HUNK (GeneID 30811) | 1 | 0.0803 | 0.00469 | -0.0851 | inactive |
| HUNK (GeneID 30811) | 2 | -0.0142 | -0.0256 | -0.101 | inactive |
| HUNK (GeneID 30811) | 3 | 0.00824 | -0.13 | -0.236 | inactive |
| HUNK (GeneID 30811) | 4 | 0.309 | 0.0318 | -0.04 | active |
| NLK (GeneID 51701) | 1 | -0.152 | -0.138 | -0.0399 | inactive |
| NLK (GeneID 51701) | 2 | -0.0176 | 0.0951 | 0.123 | active |
| NLK (GeneID 51701) | 3 | -0.115 | -0.212 | -0.126 | inactive |
| NLK (GeneID 51701) | 4 | 0.0495 | -0.0897 | -0.118 | inactive |
| GTF2H1 (GeneID 2965) | 1 | -0.134 | -0.111 | -0.0491 | inactive |
| GTF2H1 (GeneID 2965) | 2 | -0.152 | -0.207 | -0.242 | inactive |
| GTF2H1 (GeneID 2965) | 3 | -0.105 | -0.264 | -0.209 | inactive |
| GTF2H1 (GeneID 2965) | 4 | -0.0708 | -0.283 | -0.16 | inactive |
| STK36 (GeneID 27148) | 1 | 0.0651 | -0.0957 | -0.209 | inactive |
| STK36 (GeneID 27148) | 2 | 0.103 | -0.203 | -0.288 | active |
| STK36 (GeneID 27148) | 3 | 0.0692 | -0.183 | -0.119 | inactive |
| STK36 (GeneID 27148) | 4 | -0.221 | -0.232 | -0.247 | inactive |
| SYNCRIP (GeneID 10492) | 1 | 0.0308 | -0.117 | -0.0366 | inactive |
| SYNCRIP (GeneID 10492) | 2 | -0.0191 | -0.312 | -0.118 | inactive |
| SYNCRIP (GeneID 10492) | 3 | 0.0534 | 0.0153 | 0.0592 | inactive |
| SYNCRIP (GeneID 10492) | 4 | -0.176 | -0.132 | -0.134 | inactive |
| GUCY2D (GeneID 3000) | 1 | 0.197 | -0.0106 | 0.0438 | active |
| GUCY2D (GeneID 3000) | 2 | 0.273 | -0.00684 | 0.103 | active |
| GUCY2D (GeneID 3000) | 3 | -0.013 | -0.163 | -0.129 | inactive |
| GUCY2D (GeneID 3000) | 4 | 0.302 | -0.163 | -0.118 | active |
